Counter-ions that a name gives are not always drawn.
Assay: ICH-compliant stability study of ONC206-HCl Drug Substance (appearance, XRPD form, HPLC assay, purity/impurities, water content, particle size, microbial)
Type: physicochemical
Parameters: key to Escherichia Coli (Absence in 1 g) / Escherichia Coli (Absence in lg): C = Conforms; A = Absence
Procedure: The purpose of the ICH-compliant stability study was to evaluate the performance to specifications of ONC206-HCl Drug Substance under specified container closure configuration, storage conditions, and intervals.
The study was performed according to ICH Q1A(R2) and QlE Guidance documents. […]
The Container Closure Systems were: • Primary container: LDPE bag, 4×8 inches (Source: Nexus—64378); bag closure PE 180 nm (Source: Entourage), • Secondary container: LDPE bag, 4×8 inches (Source: Nexus—64378); bag closure PE 180 nm (Source: Entourage), • Tertiary container: Heat-sealed foil bag, 15×30 (Source: SERCALIA S.L.—10234), and • Outer container: Plastic drum, 6 L (Source: Curtec, HDPE ref 54021) or Plastic drum, 3.6 L (Source: Curtec).

[1] = 25 ± 2° C./60% ± 5% RH long term storage conditions, 6 months
[2] = 25 ± 2° C./60% ± 5% RH long term storage conditions, 12 months
[3] = 30 ± 2° C./65% ± 5% RH intermediate conditions, 6 months
[4] = 30 ± 2° C./65% ± 5% RH intermediate conditions, 12 months
[5] = 40 ± 2° C./75% ± 5% RH accelerated conditions, 6 months

O=C1C2=C(CCN(Cc3ccccc3)C2)N2CCN=C2N1Cc1ccc(F)cc1F [ONC206-HCl, 7-benzyl-4-(2,4-difluorobenzyl)-2,4,6,7,8,9-hexahydroimidazo[1,2-a]pyrido[3,4-e]pyrimidin-5(1H)-one]
A: Escherichia Coli (Absence in 1 g) (2-8° C., 6 months) | Escherichia Coli (Absence in 1 g) [1] | Escherichia Coli (Absence in 1 g) [2] | Escherichia Coli (Absence in 1 g) [3] | Escherichia Coli (Absence in 1 g) [4] | Escherichia Coli (Absence in 1 g) [5] | Escherichia Coli (Absence in lg) (−20° C., 6 months) | Escherichia Coli (Absence in lg) (−20° C., 12 months)
<5 CFU/g: Total Combined yeast & molds Count (NMT 1000 CFU/g) (2-8° C., 6 months) | Total Combined yeast & molds Count (NMT 1000 CFU/g) [1] | Total Combined yeast & molds Count (NMT 1000 CFU/g) [2] | Total Combined yeast & molds Count (NMT 1000 CFU/g) [3] | Total Combined yeast & molds Count (NMT 1000 CFU/g) [4] | Total Combined yeast & molds Count (NMT 1000 CFU/g) [5] | Total Combined yeast & molds Count (NMT 1000 CFU/g) (−20° C., 6 months) | Total Combined yeast & molds Count (NMT 1000 CFU/g) (−20° C., 12 months)
<200 CFU/g: Toral aerobic microbial count (NMT 1000 CFU/g) (2-8° C., 6 months) | Toral aerobic microbial count (NMT 1000 CFU/g) [1] | Toral aerobic microbial count (NMT 1000 CFU/g) [2] | Toral aerobic microbial count (NMT 1000 CFU/g) [3] | Toral aerobic microbial count (NMT 1000 CFU/g) [4] | Toral aerobic microbial count (NMT 1000 CFU/g) [5] | Toral aerobic microbial count (NMT 1000 CFU/g) (−20° C., 6 months) | Toral aerobic microbial count (NMT 1000 CFU/g) (−20° C., 12 months)
